Laboratory results: publication PMC11063194
These are yes or no findings as the source states them, for the method shown. In cells and extracts the contact can be indirect. Some binding calls cover weakened binding; strength is not graded here. Tags and fused reporters may be left off the sequences shown.

Target: T1, Carnitine palmitoyl transferase 1 A (CPT1A), HA-tagged (HA-CPT1A) (UniProt P50416)
T1 sequence: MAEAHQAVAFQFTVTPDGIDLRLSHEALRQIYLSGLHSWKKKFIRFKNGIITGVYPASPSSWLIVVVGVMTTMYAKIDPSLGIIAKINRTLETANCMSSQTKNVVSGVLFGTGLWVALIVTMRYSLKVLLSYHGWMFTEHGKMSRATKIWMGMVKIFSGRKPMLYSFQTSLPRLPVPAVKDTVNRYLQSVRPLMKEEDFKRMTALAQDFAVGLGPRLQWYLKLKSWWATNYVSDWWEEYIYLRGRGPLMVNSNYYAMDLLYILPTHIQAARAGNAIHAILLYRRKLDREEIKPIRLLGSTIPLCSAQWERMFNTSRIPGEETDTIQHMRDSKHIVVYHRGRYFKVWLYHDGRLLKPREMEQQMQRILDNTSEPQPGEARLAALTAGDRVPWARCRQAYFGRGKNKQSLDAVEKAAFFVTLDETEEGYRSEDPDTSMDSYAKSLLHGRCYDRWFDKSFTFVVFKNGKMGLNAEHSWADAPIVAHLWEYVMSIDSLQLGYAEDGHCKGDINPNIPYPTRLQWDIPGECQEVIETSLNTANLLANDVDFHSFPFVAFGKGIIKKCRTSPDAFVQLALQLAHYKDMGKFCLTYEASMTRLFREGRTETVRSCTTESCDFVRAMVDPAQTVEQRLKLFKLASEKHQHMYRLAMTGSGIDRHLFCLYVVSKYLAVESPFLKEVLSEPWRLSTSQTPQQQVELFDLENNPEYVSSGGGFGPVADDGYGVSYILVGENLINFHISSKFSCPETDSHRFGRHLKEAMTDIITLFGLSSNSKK
Test: co-IP; exogenous IP and Co-IP in 293 T and C33A cells; lysis in NP-40 buffer with phosphatase and protease inhibitors; lysates incubated with HA/Flag beads overnight at 4 °C; washed 4 times with NETN buffer; Western blotting

B1: Transmembrane 7 superfamily member 2 (TM7SF2), Flag-tagged (Flag-TM7SF2) (enzyme, UniProt O76062 1-418)
chain: MAPTQGPRAPLEFGGPLGAAALLLLLPATMFHLLLAARSGPARLLGPPASLPGLEVLWSPRALLLWLAWLGLQAALYLLPARKVAEGQELKDKSRLRYPINGFQALVLTALLVGLGMSAGLPLGALPEMLLPLAFVATLTAFIFSLFLYMKAQVAPVSALAPGGNSGNPIYDFFLGRELNPRICFFDFKYFCELRPGLIGWVLINLALLMKEAELRGSPSLAMWLVNGFQLLYVGDALWHEEAVLTTMDITHDGFGFMLAFGDMAWVPFTYSLQAQFLLHHPQPLGLPMASVICLINATGYYIFRGANSQKNTFRKNPSDPRVAGLETISTATGRKLLVSGWWGMVRHPNYLGDLIMALAWSLPCGVSHLLPYFYLLYFTALLVHREARDERQCLQKYGLAWQEYCRRVPYRIMPYIY
For B1, the binding was “binds”.
